Results on one substance are retold here after PMC5471453 (Chemical Science, 2017).

This data set in a line: peptide synthesis. Conditions: conjugation step.

DOX-FCPPs-PyTPE (TCNTP): the conjugation yield stood at 76%.
